The target in test [1] is T1, Endogenous ALDH1L1 of NIH3T3 cells (mouse (endogenous in NIH3T3)) (UniProt Q8R0Y6).
T1 sequence: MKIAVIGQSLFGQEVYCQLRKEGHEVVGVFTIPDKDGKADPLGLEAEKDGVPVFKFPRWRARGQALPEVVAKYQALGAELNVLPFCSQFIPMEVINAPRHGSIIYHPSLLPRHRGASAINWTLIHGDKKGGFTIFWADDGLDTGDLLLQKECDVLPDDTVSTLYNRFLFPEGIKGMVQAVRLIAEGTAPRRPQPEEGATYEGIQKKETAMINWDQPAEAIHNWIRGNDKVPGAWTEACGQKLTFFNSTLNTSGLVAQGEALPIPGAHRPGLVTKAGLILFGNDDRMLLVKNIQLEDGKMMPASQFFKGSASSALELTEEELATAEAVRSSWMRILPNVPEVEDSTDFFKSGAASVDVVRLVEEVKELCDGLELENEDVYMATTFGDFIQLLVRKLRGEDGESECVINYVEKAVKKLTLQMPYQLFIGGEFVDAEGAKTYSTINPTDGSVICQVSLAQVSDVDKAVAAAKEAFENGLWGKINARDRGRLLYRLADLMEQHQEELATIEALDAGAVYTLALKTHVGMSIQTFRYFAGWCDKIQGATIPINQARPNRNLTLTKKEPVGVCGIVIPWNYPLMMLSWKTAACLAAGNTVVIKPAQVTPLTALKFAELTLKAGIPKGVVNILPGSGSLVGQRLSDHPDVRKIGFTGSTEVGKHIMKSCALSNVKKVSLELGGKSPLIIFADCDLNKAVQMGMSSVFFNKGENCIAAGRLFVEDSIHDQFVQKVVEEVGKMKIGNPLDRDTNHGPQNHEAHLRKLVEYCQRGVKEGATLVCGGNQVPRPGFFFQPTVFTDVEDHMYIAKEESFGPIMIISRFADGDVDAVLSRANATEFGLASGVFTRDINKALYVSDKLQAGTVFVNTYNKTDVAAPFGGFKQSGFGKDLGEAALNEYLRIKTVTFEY
Put plainly: pull-down; NIH3T3 lysate loaded on the folate-affinity column, which retains endogenous ALDH1L1; stepwise elution with 0.5, 1.0 and 2.0 M KCl, then 5 and 20 mM folic acid in 2.0 M KCl; fractions analysed by SDS-PAGE/Western blot. A general note: In western blotting, separated proteins are transferred to a membrane and probed.

The chains behind the UniProt entries cited, without tags or fusion partners.
UniProt Q9WUD1: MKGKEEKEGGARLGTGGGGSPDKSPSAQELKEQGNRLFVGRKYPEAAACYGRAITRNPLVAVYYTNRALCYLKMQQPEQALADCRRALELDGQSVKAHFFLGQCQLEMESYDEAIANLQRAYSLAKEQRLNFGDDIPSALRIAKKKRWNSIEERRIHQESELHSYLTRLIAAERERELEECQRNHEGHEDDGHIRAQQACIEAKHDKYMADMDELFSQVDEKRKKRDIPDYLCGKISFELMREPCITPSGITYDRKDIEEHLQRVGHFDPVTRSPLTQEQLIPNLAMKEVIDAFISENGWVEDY

Test [2] concerns the target T1, Endogenous ALDH1L1 of NIH3T3 cells (mouse (endogenous in NIH3T3)). The test is described as follows: co-IP; NIH3T3 lysate (RIPA buffer), immunoprecipitated with ALDH1L1-specific antibody (protein G Sepharose or Surebeads) or with anti-HSP90 antibody (protein A magnetic beads), 4 °C; Western blot with ALDH1L1-, HSP90- and CHIP-specific antibodies.

Results are given in words; binding and its absence hold for the method and conditions named. Binding seen in cells or lysates may run through a third protein. Some entries that bind do so weakly or less than the wild type.

This note sets out measurements from publication PMC6034817.

In the case of “Endogenous E3 ubiquitin-protein ligase CHIP of NIH3T3 cells (from UniProt Q9WUD1 1-304) (enzyme)”, the binding result in test [1] and in test [2] was “binds” throughout.
